# Laboratory results reported in patent US11957665B1, “Pharmaceutical composition for preventing or treating alopecia areata acting as a functional antagonist for S1PR1 and S1PR4” (NEXTGEN BIOSCIENCE CO., LTD., priority 2022, dated 2024).
# At least one compound was matched to its structure with a doubt left.
# Assays:
# [1] = system: alopecia areata mouse model C3H/HeJ; experiment: Efficacy in suppressing alopecia areata in C3H/HeJ alopecia areata mouse model; type: in vivo, C3H/HeJ mice; conditions: 30 mg/kg oral, at 84 days after drug administration
# Protocol: The effectiveness of NXC736 for alopecia areata was evaluated using the alopecia areata mouse model C3H/HeJ (Jackson Lab, Saeron Bio). […] Conditions for the animal breeding room include a temperature of 23±3° C., relative humidity of 50±10%, and day and night maintained at 12-hour intervals, and experimental animals were raised in isolation breeding boxes (ThreeShine), and fed with food and drinking water for experimental animals ad libitum.
# Mice were divided into two groups: the control group (sterilized distilled water administration group) and the NXC736 administration experimental group, five C3H/HeJ mice were randomly assigned per group, and from the time point lymph node cells were proliferated and injected into C3H/HeJ mice aged 10 to 16 weeks where no alopecia was induced, NXC736 was orally administered at 30 mg/kg for the NXC736 administration group and the same volume of sterilized distilled water was orally administered for the control group for 12 weeks once a day at the same time, respectively, and then the area of alopecia areata (AA) lesion area and disease free ratio were measured at intervals of 2 weeks.
# The alopecia areata lesion area was measured using the Image J program (Version 1.44p) after taking a photograph.
# The disease free ratio was defined as the proportion of mice administered the drug and not showing alopecia symptoms at a specified time point.
# [2] = system: T cells, CD4 T cells, CD8 T cells; experiment: Inhibitory effect of NXC736 on rat immune cells (flow cytometry of lymphocytes in peripheral blood and bone marrow); type: in vivo, SD rats; conditions: 10 mg/kg oral once
# Protocol: To evaluate the effect of NXC736 on rat immune cells, NXC736 was administered orally once at 10 mg/kg/day to SD rats (Daehan BioLink (DBL), 3 control groups, and 15 test groups), and then measurements were performed by classifying into T cells, CD4 T cells, and CD8 T cells in peripheral bloodstream (PB) and bone marrow (BM) using the same antibodies as in Experimental Example 1. Specifically, measurements were made using a flow cytometer (FC500, Beckman coulter) at 0, 4, 8, 12, 24, 36, and 48 hours after administration of the test substance, the analysis was performed using FlowJo™ V10 (Flowjo, LLC), and the numbers of T cells, CD4 T cells, and CD8 T cells were expressed as % of control based on time 0.
smiles,measurement,setting,value
"CCCCCCCCCCn1cc(CCC(N)(CO)CO)nn1 [NXC736, 2-amino-2-(2-(1-decyl-1H-1,2,3-triazol-4-yl)ethyl)propane-1,3-diol]","progression of alopecia areata, naked eye",[1],significantly delayed
same,number of lymphocytes in bone marrow (BM),[2]; BM,no change in the number of lymphocytes or a tendency to increase
same,T cells in peripheral bloodstream (PB),"[2]; up to 4 hours after administration, PB",rapidly reduced
